{"source": "PubChem BioAssay AID248", "about": "(DTP/NCI, 2004)", "test_system": "L1210 leukemia ip in BDF1 mice, survival T/C", "assay": "NCI In Vivo Anticancer Drug Screen. Data for tumor model L1210 Leukemia (intraperitoneal) in B6D2F1 (BDF1) mice", "conditions": "T/C endpoint: mean survival time, higher T/C = longer survival", "key": {"[1]": {"conditions": "dose: 200.0 mg/kg/injection, schedule: Q01DX001 (ip), vehicle: saline"}, "[2]": {"conditions": "dose: 400.0 mg/kg/injection, schedule: Q01DX001 (ip), vehicle: saline"}, "[3]": {"conditions": "dose: 200.0 mg/kg/injection, schedule: Q01DX Z (ip), vehicle: saline"}}, "note": "The list does not hold the whole screen: it gathers tests that were run many times, whatever their T/C, doses with no T/C, and many T/C values between a quarter and a half above the control. Further doses and runs are listed elsewhere. T/C gives the treated animals as a percentage of the vehicle group. Some doses have a count of surviving animals in place of a T/C: the source holds a T/C of zero for them, seemingly a mark for toxic or unscored doses. Some survivor counts are full or nearly so, which does not show that the dose was tolerated: the source hardly ever lists a survival T/C far under the control, and the zero likely stands for such cases as well. Counts of survivors are from the toxicity check (mostly the fifth day) where no day follows; animals may have died later. Schedules are NCI's codes, read here as Q, the interval in days (D) or hours (H), X, the number of doses. Some schedules carry Z or #; the key to these is not given."}
{"smiles": "CC1(Br)OC(=O)C(C)(Br)OC1=O", "note": "(stereo not drawn)", "values": [{"measurement": "survivor count", "setting": "dose: 400.0 mg/kg/injection, schedule: Q04DX003 (ip), vehicle: saline", "value": "4 of 6"}]}
{"smiles": "COc1ccccc1N=Nc1c(O)n(-c2ccccc2C)c(=S)n(-c2ccccc2OC)c1=O", "values": [{"measurement": "survivor count", "setting": "dose: 400.0 mg/kg/injection, schedule: Q01DX001 (ip), vehicle: Klucel (hydroxypropylcellulose) (HPC)", "value": "1 of 6"}]}
{"smiles": "S=P1(c2ccccc2)Nc2cc(Cl)ccc2S1", "note": "(stereo not drawn)", "values": [{"measurement": "survivor count", "setting": "[1]", "value": "1 of 6"}, {"measurement": "survivor count", "setting": "[2]", "value": "0 of 6"}]}
{"smiles": "Cc1ccc(C)c2c1[nH]c1c(C)c3ccncc3c(C)c12", "values": [{"measurement": "survivor count", "setting": "[3]", "value": "1 of 6"}, {"measurement": "survivor count", "setting": "dose: 400.0 mg/kg/injection, schedule: Q01DX Z (ip), vehicle: saline", "value": "0 of 6"}]}
{"smiles": "COC(=O)c1cn[nH]c1N1CC[N+](CCCl)=N1", "values": [{"measurement": "survivor count", "setting": "dose: 100.0 mg/kg/injection, schedule: Q01DX009 (ip), vehicle: saline", "value": "2 of 6"}, {"measurement": "survivor count", "setting": "[1]", "value": "2 of 6"}, {"measurement": "survivor count", "setting": "[2]", "value": "2 of 6"}]}
{"smiles": "c1ccc2c(NC3=NCCO3)c3ccccc3nc2c1", "values": [{"measurement": "survivor count", "setting": "dose: 100.0 mg/kg/injection, schedule: Q04DX003 (ip), vehicle: saline with Tween-80", "value": "3 of 6"}, {"measurement": "survivor count", "setting": "dose: 200.0 mg/kg/injection, schedule: Q04DX003 (ip), vehicle: saline with Tween-80", "value": "0 of 6"}, {"measurement": "survivor count", "setting": "dose: 400.0 mg/kg/injection, schedule: Q04DX003 (ip), vehicle: saline with Tween-80", "value": "0 of 6"}]}
{"smiles": "NCCc1cc(O)c(O)c(S(=O)(=O)c2ccc(N)cc2)c1", "values": [{"measurement": "survivor count", "setting": "dose: 300.0 mg/kg/injection, schedule: Q01DX009 (ip), vehicle: saline", "value": "3 of 6"}]}
{"smiles": "COC1C=CC=CC=C1", "values": [{"measurement": "survivor count", "setting": "dose: 75.0 mg/kg/injection, schedule: Q01DX001 (ip), vehicle: saline", "value": "0 of 6"}, {"measurement": "survivor count", "setting": "dose: 150.0 mg/kg/injection, schedule: Q01DX001 (ip), vehicle: saline", "value": "0 of 6"}, {"measurement": "survivor count", "setting": "dose: 300.0 mg/kg/injection, schedule: Q01DX001 (ip), vehicle: saline", "value": "0 of 6"}]}
{"smiles": "CCC(C)(C)NC1=C(Cl)C(=O)c2ccccc2C1=O", "values": [{"measurement": "survivor count", "setting": "dose: 25.0 mg/kg/injection, schedule: Q01DX001 (ip), vehicle: saline with Tween-80", "value": "0 of 6"}, {"measurement": "survivor count", "setting": "dose: 100.0 mg/kg/injection, schedule: Q01DX001 (ip), vehicle: saline with Tween-80", "value": "0 of 6"}, {"measurement": "survivor count", "setting": "dose: 200.0 mg/kg/injection, schedule: Q01DX001 (ip), vehicle: saline with Tween-80", "value": "0 of 6"}, {"measurement": "survivor count", "setting": "dose: 400.0 mg/kg/injection, schedule: Q01DX001 (ip), vehicle: saline with Tween-80", "value": "0 of 6"}]}
{"smiles": "Cc1cc(CCl)c(C)c(Br)c1C", "values": [{"measurement": "survivor count", "setting": "dose: 75.0 mg/kg/injection, schedule: Q01DX009 (ip), vehicle: Klucel (hydroxypropylcellulose) (HPC)", "value": "1 of 6"}, {"measurement": "survivor count", "setting": "dose: 150.0 mg/kg/injection, schedule: Q01DX009 (ip), vehicle: Klucel (hydroxypropylcellulose) (HPC)", "value": "0 of 6"}, {"measurement": "survivor count", "setting": "dose: 300.0 mg/kg/injection, schedule: Q01DX009 (ip), vehicle: Klucel (hydroxypropylcellulose) (HPC)", "value": "0 of 6"}]}
{"smiles": "N#CCC(C#N)C1C=CCC1", "note": "(stereo not drawn)", "values": [{"measurement": "survivor count", "setting": "dose: 20.0 mg/kg/injection, schedule: Q01DX001 (ip), vehicle: saline", "value": "2 of 6"}, {"measurement": "survivor count", "setting": "dose: 25.0 mg/kg/injection, schedule: Q04DX003 (ip), vehicle: saline with Tween-80", "value": "0 of 6"}, {"measurement": "survivor count", "setting": "dose: 40.0 mg/kg/injection, schedule: Q01DX001 (ip), vehicle: saline", "value": "0 of 6"}, {"measurement": "survivor count", "setting": "dose: 50.0 mg/kg/injection, schedule: Q04DX003 (ip), vehicle: saline with Tween-80", "value": "0 of 6"}, {"measurement": "survivor count", "setting": "dose: 80.0 mg/kg/injection, schedule: Q01DX001 (ip), vehicle: saline", "value": "0 of 6"}]}
{"smiles": "Nc1nc(N)c(N)c(Nc2ccc(O)cc2)n1", "values": [{"measurement": "survivor count", "setting": "[3]", "value": "6 of 6"}]}
{"smiles": "NC(=O)c1ccccc1C(=O)c1ccccc1", "values": [{"measurement": "survivor count", "setting": "[2]", "value": "0 of 6"}]}
{"smiles": "CC(=O)C[n+]1ccccc1Br", "values": [{"measurement": "survivor count", "setting": "dose: 250.0 mg/kg/injection, schedule: Q01DX015 (ip), vehicle: water", "value": "1 of 6"}, {"measurement": "survivor count", "setting": "dose: 500.0 mg/kg/injection, schedule: Q01DX015 (ip), vehicle: water", "value": "0 of 6"}]}
{"smiles": "CC(=O)C(=Cc1ccccc1)C(C)=O", "values": [{"measurement": "survivor count", "setting": "dose: 200.0 mg/kg/injection, schedule: Q01DX009 (ip), vehicle: Klucel (hydroxypropylcellulose) (HPC)", "value": "6 of 6"}]}
